Measurements as given in the supplement of paper PMC12067093, “Discovery and optimisation of a covalent ligand for TRIM25 and its application to targeted protein ubiquitination” (Chemical Science, 2025).
The other results are listed elsewhere or left out.

Chains of the proteins cited; added tags and fusions are not shown. Lines headed by an entry give the natural chain unless they say otherwise; changes in a name come on top.
UniProt Q15020: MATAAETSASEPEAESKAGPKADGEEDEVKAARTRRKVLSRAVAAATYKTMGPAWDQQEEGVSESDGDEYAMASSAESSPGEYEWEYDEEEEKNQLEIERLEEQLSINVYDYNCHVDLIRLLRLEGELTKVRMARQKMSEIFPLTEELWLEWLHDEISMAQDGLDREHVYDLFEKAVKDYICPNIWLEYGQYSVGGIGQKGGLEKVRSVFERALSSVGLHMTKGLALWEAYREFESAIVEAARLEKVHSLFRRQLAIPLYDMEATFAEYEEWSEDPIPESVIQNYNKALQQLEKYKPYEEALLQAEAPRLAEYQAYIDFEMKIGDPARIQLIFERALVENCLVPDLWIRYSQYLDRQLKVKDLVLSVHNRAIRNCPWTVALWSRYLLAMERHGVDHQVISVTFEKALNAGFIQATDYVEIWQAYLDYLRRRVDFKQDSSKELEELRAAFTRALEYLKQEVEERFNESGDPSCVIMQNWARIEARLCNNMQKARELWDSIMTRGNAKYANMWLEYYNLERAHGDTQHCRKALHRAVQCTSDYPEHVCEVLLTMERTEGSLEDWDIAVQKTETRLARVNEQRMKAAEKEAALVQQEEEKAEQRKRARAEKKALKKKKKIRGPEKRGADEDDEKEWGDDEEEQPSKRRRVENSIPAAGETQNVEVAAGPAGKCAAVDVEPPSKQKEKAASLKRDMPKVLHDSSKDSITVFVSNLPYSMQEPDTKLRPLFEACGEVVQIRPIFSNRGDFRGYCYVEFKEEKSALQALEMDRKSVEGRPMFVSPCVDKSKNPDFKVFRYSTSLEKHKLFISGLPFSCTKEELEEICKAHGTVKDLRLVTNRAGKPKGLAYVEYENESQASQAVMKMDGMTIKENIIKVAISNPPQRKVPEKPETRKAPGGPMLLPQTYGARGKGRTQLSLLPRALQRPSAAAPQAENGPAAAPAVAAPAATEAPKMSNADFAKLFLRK
UniProt Q15437: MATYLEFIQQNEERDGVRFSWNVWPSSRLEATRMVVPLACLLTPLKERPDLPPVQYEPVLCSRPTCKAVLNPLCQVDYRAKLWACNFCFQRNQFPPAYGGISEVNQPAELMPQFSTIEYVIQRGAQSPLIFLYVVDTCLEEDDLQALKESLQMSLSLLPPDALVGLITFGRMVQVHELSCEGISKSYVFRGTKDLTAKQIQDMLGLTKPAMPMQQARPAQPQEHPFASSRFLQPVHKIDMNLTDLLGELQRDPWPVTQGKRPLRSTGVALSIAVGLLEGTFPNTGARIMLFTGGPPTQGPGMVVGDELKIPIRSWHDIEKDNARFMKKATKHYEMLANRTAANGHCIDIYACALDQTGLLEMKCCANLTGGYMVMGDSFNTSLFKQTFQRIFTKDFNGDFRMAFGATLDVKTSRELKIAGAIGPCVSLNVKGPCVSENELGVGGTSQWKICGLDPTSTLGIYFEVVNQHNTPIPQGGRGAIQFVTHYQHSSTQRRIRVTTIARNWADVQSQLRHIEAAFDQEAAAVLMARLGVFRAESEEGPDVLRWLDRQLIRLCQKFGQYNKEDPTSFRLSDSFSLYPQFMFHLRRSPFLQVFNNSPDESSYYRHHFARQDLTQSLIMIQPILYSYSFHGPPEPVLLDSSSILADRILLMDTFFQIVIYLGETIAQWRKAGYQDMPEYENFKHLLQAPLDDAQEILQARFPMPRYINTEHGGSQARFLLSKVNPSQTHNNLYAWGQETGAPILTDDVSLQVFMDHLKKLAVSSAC
UniProt Q8WVM8, whole entry, looked up: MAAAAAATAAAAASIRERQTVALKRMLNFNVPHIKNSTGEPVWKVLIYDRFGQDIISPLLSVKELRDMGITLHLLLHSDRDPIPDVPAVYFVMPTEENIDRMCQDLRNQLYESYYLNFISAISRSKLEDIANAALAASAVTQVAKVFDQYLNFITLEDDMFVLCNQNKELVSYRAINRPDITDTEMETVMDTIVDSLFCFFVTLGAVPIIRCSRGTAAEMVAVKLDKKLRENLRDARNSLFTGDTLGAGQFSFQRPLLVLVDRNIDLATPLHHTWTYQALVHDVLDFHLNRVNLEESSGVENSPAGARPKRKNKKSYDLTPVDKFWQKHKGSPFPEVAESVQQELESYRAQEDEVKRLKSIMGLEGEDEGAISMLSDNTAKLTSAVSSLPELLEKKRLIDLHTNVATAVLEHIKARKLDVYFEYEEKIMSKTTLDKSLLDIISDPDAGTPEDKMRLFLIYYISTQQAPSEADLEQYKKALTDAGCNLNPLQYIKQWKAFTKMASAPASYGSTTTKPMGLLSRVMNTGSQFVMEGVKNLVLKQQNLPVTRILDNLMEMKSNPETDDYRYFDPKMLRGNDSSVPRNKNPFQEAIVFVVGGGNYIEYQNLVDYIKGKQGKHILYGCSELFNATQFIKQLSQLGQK
UniProt O00560: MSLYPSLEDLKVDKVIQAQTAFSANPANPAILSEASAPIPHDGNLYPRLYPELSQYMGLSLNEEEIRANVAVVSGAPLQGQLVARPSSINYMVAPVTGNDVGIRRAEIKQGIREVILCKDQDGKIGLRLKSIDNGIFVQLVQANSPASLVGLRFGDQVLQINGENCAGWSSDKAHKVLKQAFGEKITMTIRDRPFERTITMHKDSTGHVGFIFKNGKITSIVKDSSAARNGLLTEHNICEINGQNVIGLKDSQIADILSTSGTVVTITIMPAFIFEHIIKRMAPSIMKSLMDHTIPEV
UniProt P53992: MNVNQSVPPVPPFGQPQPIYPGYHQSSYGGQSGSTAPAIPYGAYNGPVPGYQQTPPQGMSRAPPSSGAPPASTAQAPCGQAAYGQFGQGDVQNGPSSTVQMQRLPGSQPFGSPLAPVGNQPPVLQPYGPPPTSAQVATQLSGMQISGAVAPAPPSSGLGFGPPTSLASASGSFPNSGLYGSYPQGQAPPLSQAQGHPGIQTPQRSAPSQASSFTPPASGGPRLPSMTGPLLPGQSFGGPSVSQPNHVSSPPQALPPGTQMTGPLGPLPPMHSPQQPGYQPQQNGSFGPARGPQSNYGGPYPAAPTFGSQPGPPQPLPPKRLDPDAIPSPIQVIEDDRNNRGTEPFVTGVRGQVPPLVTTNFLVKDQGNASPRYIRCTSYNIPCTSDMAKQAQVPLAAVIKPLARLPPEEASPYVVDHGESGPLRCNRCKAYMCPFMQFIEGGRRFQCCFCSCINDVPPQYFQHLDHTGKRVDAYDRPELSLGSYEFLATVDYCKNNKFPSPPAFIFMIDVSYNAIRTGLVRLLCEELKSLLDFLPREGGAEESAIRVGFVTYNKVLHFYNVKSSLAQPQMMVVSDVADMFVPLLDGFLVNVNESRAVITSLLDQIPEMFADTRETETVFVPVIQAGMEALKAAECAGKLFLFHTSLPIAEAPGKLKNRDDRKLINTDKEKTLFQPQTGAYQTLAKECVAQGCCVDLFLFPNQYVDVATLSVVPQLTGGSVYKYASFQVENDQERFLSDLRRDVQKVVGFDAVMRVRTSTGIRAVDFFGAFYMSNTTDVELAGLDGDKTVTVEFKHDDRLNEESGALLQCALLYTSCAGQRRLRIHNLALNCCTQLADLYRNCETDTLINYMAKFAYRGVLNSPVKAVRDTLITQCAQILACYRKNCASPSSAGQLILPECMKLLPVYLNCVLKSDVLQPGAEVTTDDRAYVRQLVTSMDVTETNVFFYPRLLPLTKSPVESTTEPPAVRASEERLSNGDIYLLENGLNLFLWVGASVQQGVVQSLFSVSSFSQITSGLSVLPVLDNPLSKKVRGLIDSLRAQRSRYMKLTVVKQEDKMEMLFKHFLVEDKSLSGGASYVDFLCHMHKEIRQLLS
UniProt Q9NR31: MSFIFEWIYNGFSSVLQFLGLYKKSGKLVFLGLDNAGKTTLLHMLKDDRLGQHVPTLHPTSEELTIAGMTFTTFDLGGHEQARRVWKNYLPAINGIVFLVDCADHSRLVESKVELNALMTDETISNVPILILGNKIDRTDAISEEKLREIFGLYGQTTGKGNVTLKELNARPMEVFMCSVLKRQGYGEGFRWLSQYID
UniProt P31040: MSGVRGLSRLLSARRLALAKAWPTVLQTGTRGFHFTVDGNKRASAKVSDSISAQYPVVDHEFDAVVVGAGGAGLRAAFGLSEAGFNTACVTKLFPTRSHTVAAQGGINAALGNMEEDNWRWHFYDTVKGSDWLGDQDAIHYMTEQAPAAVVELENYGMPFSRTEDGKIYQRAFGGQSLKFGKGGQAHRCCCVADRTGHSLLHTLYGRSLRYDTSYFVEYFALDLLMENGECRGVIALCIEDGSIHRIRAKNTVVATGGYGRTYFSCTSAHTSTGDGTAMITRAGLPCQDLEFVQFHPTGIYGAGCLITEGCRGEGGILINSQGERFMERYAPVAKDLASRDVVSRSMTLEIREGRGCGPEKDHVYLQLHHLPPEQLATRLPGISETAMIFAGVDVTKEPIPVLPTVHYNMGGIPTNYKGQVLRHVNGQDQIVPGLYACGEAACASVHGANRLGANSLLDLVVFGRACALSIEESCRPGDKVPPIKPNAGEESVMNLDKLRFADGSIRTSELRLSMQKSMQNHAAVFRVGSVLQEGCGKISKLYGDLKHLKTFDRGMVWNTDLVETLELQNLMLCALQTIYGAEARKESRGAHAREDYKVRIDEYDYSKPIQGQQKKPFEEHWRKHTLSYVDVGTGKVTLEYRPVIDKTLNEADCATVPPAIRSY
UniProt Q96NL6: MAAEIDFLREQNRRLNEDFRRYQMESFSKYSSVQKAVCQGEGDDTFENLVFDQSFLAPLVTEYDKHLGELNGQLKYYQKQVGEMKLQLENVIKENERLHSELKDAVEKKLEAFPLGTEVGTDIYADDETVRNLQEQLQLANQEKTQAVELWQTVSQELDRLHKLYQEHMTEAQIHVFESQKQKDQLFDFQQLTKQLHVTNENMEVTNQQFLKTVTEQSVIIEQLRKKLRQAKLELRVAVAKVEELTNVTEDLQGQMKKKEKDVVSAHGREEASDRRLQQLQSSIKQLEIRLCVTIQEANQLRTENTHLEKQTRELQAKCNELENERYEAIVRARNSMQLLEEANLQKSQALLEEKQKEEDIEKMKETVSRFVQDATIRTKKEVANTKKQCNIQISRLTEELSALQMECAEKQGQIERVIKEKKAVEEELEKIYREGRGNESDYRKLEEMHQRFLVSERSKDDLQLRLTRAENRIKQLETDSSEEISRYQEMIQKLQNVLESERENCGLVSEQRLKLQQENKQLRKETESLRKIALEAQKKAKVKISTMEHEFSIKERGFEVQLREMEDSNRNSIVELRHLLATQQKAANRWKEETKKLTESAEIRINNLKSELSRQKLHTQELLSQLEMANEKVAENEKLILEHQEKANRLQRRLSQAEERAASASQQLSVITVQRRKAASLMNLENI
UniProt Q9Y512: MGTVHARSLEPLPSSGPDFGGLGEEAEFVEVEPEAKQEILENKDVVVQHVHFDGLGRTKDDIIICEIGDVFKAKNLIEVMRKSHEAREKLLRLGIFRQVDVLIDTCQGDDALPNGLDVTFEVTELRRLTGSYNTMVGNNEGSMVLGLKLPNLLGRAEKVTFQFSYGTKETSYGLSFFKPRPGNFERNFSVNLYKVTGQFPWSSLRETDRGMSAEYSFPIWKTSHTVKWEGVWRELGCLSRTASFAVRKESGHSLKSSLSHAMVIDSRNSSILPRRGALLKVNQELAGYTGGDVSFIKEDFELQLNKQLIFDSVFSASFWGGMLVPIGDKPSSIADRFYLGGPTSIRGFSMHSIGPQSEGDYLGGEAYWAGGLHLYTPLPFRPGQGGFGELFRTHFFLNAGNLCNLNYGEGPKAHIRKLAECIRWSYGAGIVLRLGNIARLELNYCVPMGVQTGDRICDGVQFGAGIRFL
UniProt Q9UQR0: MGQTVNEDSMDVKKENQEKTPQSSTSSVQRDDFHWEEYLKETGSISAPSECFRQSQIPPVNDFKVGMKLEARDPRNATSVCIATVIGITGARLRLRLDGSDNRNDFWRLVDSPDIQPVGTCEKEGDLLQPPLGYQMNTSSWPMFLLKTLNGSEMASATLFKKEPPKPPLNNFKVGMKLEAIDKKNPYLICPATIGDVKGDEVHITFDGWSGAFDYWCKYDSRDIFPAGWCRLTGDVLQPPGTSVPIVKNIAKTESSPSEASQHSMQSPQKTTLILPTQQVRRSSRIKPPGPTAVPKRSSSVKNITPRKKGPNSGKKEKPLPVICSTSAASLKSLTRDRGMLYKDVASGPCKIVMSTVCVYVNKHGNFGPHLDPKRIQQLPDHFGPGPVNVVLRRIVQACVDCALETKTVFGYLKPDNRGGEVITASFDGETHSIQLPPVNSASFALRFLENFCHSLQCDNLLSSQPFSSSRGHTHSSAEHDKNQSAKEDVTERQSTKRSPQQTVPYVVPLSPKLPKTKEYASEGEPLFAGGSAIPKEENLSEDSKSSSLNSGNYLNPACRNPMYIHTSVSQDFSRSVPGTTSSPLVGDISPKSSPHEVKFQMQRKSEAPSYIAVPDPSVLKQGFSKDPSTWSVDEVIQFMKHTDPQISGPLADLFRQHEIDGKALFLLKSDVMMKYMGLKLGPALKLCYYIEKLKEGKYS

Compound: Cc1cc(ccc1-c1ccccc1)C(=O)N1CCCN(CC1)C(=O)CCl [compound 10]
Assay: probe-labelled cysteine peptide fold change vs DMSO (competition) (log2 fold change); higher = less target engagement (more negative = stronger competition)
Details: 10 µM; THP-1; incubation time: 4 h
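Note: competitive profiling in live THP-1 cells: cysteine peptides tagged with an iodoacetamide desthiobiotin (IA-DTB) probe, intensity after compound treatment relative to DMSO-treated cells.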

Target	probe-labelled cysteine peptide fold change
SEC23IP_Q9Y6Y8_814_IDENYSLPTCK (UniProt Q9Y6Y8)	0.112
SEC23IP_Q9Y6Y8_457_GIDDNLDEIPDGEMPQVDHLVFVVHGIGPVCDLR (UniProt Q9Y6Y8)	-0.0121
SART3_Q15020_729_LRPLFEACGEVVQIRPIFSNR (UniProt Q15020)	0.0638
SEC23B_Q15437_66_ERPDLPPVQYEPVLCSRPTCK (UniProt Q15437)	0.0815
SATB2_Q9UPW6_159_IQLQSCSK (UniProt Q9UPW6)	-0.0941
SEC23B_Q15437_85_LWACNFCFQR (UniProt Q15437)	-0.0086
SDAD1_Q9NVU7_87_DLLSCNHTVLDPDLR (UniProt Q9NVU7)	0.0323
SATB2_Q9UPW6_539_TLWENLCTIR (UniProt Q9UPW6)	0.0286
SBF1_O95248_601_CLAQELHLHVQQNR (UniProt O95248)	0.168
SEL1L_Q9UBV2_141_EYDECTSDGR (UniProt Q9UBV2)	-0.263
SART1_O43290_645_GLAAALLLCQNK (UniProt O43290)	-0.175
SEPT11_Q9NVA2_41+46_STSQGFCFNILCVGETGIGK (UniProt Q9NVA2)	0.151
SBF1_O95248_896_LLPGEECVLDGLR (UniProt O95248)	-0.123
SCFD1_Q8WVM8_623_HILYGCSELFNATQFIK (UniProt Q8WVM8)	0.0551
SDF2_Q99470_137_NLHSHHFTSPLSGNQEVSAFGEEGEGDYLDDWTVLCNGPYWVR (UniProt Q99470)	0.365
SEL1L_Q9UBV2_127_PALTAIEGTAHGEPCHFPFLFLDK (UniProt Q9UBV2)	-0.142
SDCBP_O00560_239_NGLLTEHNICEINGQNVIGLK (UniProt O00560)	-0.0194
SEC24C_P53992_1083_SLSGGASYVDFLCHMHK (UniProt P53992)	-0.0911
SEC24D_O94855_780_SCETDALINFFAK (UniProt O94855)	-0.0434
SDK1_Q7Z5N4_1538_GEWQTYSSSISHEATACVVDR (UniProt Q7Z5N4)	0.0986

Target	probe-labelled cysteine peptide fold change
SAR1A_Q9NR31_178_PMEVFMCSVLK (UniProt Q9NR31)	-0.033
SAP30_O75446_112_HLYICDYHK (UniProt O75446)	-0.000117
SDHA_P31040_536_VGSVLQEGCGK (UniProt P31040)	-0.00734
SART1_O43290_560_GAIVFNATSEFCR (UniProt O43290)	-0.126
SEC23IP_Q9Y6Y8_604_CPGPLAVANGVVK (UniProt Q9Y6Y8)	-0.165
SEL1L_Q9UBV2_153_LWCATTYDYK (UniProt Q9UBV2)	-0.068
SATB1_Q01826_78_KGTMLPVFCVVEHYENAIEYDCKEEHAEFVLVR (UniProt Q01826)	0.0714
SCLT1_Q96NL6_319_CNELENERYEAIVR (UniProt Q96NL6)	0.115
SEPT11_Q9NVA2_150_IHACLYFIAPTGHSLK (UniProt Q9NVA2)	-0.125
SATB2_Q9UPW6_246_VERENLSDYCVLGQRPMHLPNMNQLASLGK (UniProt Q9UPW6)	-0.223
SEPT5_Q99719_278_LYPWGIVEVENQAHCDFVK (UniProt Q99719)	0.194
SAMSN1_Q9NSI8_165_DSFRLDDDGPYSGPFCGR (UniProt Q9NSI8)	0.0998
SEC24D_O94855_1021+1022_GLYGGSSYVDFLCCVHK (UniProt O94855)	-0.000618
SCMH1_Q96GD3_225_DIFPVGWCSLTGDNLQPPGTK (UniProt Q96GD3)	-0.098
SENP8_Q96LD8_64_CTSNPAEIAMFLEPLDLPNKR (UniProt Q96LD8)	-0.0924
SDCCAG8_Q86SQ7_236_CEIEESQLK (UniProt Q86SQ7)	0.069
SAMM50_Q9Y512_65_DDIIICEIGDVFK (UniProt Q9Y512)	0.144
SDHA_P31040_475_ACALSIEESCRPGDK (UniProt P31040)	0.0324
SCML2_Q9UQR0_121_LVDSPDIQPVGTCEK (UniProt Q9UQR0)	-0.315

Same assay, conditions: 50 µM; THP-1; incubation time: 4 h

Target	probe-labelled cysteine peptide fold change
SEC23IP_Q9Y6Y8_814_IDENYSLPTCK (UniProt Q9Y6Y8)	0.223
SEC23IP_Q9Y6Y8_457_GIDDNLDEIPDGEMPQVDHLVFVVHGIGPVCDLR (UniProt Q9Y6Y8)	-0.00893
SART3_Q15020_729_LRPLFEACGEVVQIRPIFSNR (UniProt Q15020)	0.203
SEC23B_Q15437_66_ERPDLPPVQYEPVLCSRPTCK (UniProt Q15437)	0.0328
SATB2_Q9UPW6_159_IQLQSCSK (UniProt Q9UPW6)	0.0522
SEC23B_Q15437_85_LWACNFCFQR (UniProt Q15437)	-0.244
SDAD1_Q9NVU7_87_DLLSCNHTVLDPDLR (UniProt Q9NVU7)	0.494
SATB2_Q9UPW6_539_TLWENLCTIR (UniProt Q9UPW6)	0.307
SBF1_O95248_601_CLAQELHLHVQQNR (UniProt O95248)	0.0912
SEL1L_Q9UBV2_141_EYDECTSDGR (UniProt Q9UBV2)	0.593
SART1_O43290_645_GLAAALLLCQNK (UniProt O43290)	-0.114
SEPT11_Q9NVA2_41+46_STSQGFCFNILCVGETGIGK (UniProt Q9NVA2)	-0.125
SBF1_O95248_896_LLPGEECVLDGLR (UniProt O95248)	-0.16
SCFD1_Q8WVM8_623_HILYGCSELFNATQFIK (UniProt Q8WVM8)	0.0848
SDF2_Q99470_137_NLHSHHFTSPLSGNQEVSAFGEEGEGDYLDDWTVLCNGPYWVR (UniProt Q99470)	0.0175
SEL1L_Q9UBV2_127_PALTAIEGTAHGEPCHFPFLFLDK (UniProt Q9UBV2)	0.506
SDCBP_O00560_239_NGLLTEHNICEINGQNVIGLK (UniProt O00560)	0.0465
SEC24C_P53992_1083_SLSGGASYVDFLCHMHK (UniProt P53992)	-0.558
SEC24D_O94855_780_SCETDALINFFAK (UniProt O94855)	0.241
SDK1_Q7Z5N4_1538_GEWQTYSSSISHEATACVVDR (UniProt Q7Z5N4)	-0.0249

Target	probe-labelled cysteine peptide fold change
SAR1A_Q9NR31_178_PMEVFMCSVLK (UniProt Q9NR31)	0.00755
SAP30_O75446_112_HLYICDYHK (UniProt O75446)	-0.553
SDHA_P31040_536_VGSVLQEGCGK (UniProt P31040)	0.121
SART1_O43290_560_GAIVFNATSEFCR (UniProt O43290)	-0.0878
SEC23IP_Q9Y6Y8_604_CPGPLAVANGVVK (UniProt Q9Y6Y8)	-0.289
SEL1L_Q9UBV2_153_LWCATTYDYK (UniProt Q9UBV2)	0.446
SATB1_Q01826_78_KGTMLPVFCVVEHYENAIEYDCKEEHAEFVLVR (UniProt Q01826)	-0.228
SCLT1_Q96NL6_319_CNELENERYEAIVR (UniProt Q96NL6)	0.253
SEPT11_Q9NVA2_150_IHACLYFIAPTGHSLK (UniProt Q9NVA2)	0.227
SATB2_Q9UPW6_246_VERENLSDYCVLGQRPMHLPNMNQLASLGK (UniProt Q9UPW6)	-0.659
SEPT5_Q99719_278_LYPWGIVEVENQAHCDFVK (UniProt Q99719)	0.135
SAMSN1_Q9NSI8_165_DSFRLDDDGPYSGPFCGR (UniProt Q9NSI8)	-0.03
SEC24D_O94855_1021+1022_GLYGGSSYVDFLCCVHK (UniProt O94855)	-0.939
SCMH1_Q96GD3_225_DIFPVGWCSLTGDNLQPPGTK (UniProt Q96GD3)	0.419
SENP8_Q96LD8_64_CTSNPAEIAMFLEPLDLPNKR (UniProt Q96LD8)	-0.139
SDCCAG8_Q86SQ7_236_CEIEESQLK (UniProt Q86SQ7)	-0.322
SAMM50_Q9Y512_65_DDIIICEIGDVFK (UniProt Q9Y512)	0.425
SDHA_P31040_475_ACALSIEESCRPGDK (UniProt P31040)	0.402
SCML2_Q9UQR0_121_LVDSPDIQPVGTCEK (UniProt Q9UQR0)	-0.0817
